# In PubChem BioAssay AID445 (National Center for Advancing Translational Sciences (NCATS), 2006):
# Several values for one entry are separate records, joined by “and”; a condition that tells them apart may be missing. Equal entries are not always repeated. This is one part of the list. The main result of the screen is listed elsewhere. These columns were measured beside it and carry no call. Compounds called inactive in the main read-out are mostly missing here. The note in brackets gives the kind of curve behind each potency; many fits are weak.
# Assay: IkB Signaling
# Details: ABC-DLBCL IkBa-CBG/CBR dual luciferase ratio (green luciferase fused to IkBa over red control in OCI-Ly3 lymphoma cells), 4 h
# Outline: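 In this assay, an IκBα–CBG68 fusion accumulates when IKK-driven degradation is blocked; native CBR normalizes for cell number. OCI-Ly3 cells were treated 4 h with compound and doxycycline, then green and red light read after Chroma-Glo addition.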
# [1] = measured here: control luc red channel unless noted
# [2] = measured here: IkB-luc green channel
# [3] = measured here: control luc red channel
structure (smiles),measurement,setting,value
CC1CCN(C(=O)c2cc3c(=O)n(C)c4ccccc4c3s2)CC1,AC50,[1],"6.31 µM [falling, partial curve]"
CCOC(=O)c1c(NC(C)=O)c2c3c(sc2n1Cc1ccc(Cl)cc1)CCCC3,AC50,[1],"10 µM [falling, partial curve]"
COc1cc(C2NC(=O)N(C)C3=C2C(=O)N(c2cccc(Cl)c2)C3)ccc1O (stereo not drawn),AC50,[1],"39.8 µM [falling, single point]"
COc1cccc(-n2c(SCC(=O)Nc3cccc(Cl)c3)nc3c(oc4ccccc43)c2=O)c1,AC50,[1],"0.0794 µM [falling, full curve]"
COc1cccc(Cn2c(=O)cnc3cncnc32)c1,AC50,[1],"3.16 µM [rising, partial curve] [measured here: IkB-luc green channel]"
CS(=O)(=O)c1oc(-c2ccc(F)cc2)nc1S(=O)(=O)c1ccc(Cl)cc1,AC50,[1],"2.51 µM [falling, full curve]"
O=C(NCc1ccc(F)cc1)C1CCCN(c2ncnc3onc(-c4ccc(F)cc4)c23)C1 (stereo not drawn),AC50,[1],"25.1 µM [falling, single point]"
N#C/C(=C(/O)COC(=O)CCCNC(=O)c1ccc(Cl)cc1)c1nc2ccccc2[nH]1,AC50,[2],"31.6 µM [rising, single point]"
same,AC50,[3],"12.6 µM [falling, partial curve]"
COc1ccc(Cl)cc1NC(=O)CSC1=Nc2ccccc2C2=NC(CC(=O)NC3CCCCC3)C(=O)N12 (stereo not drawn),AC50,[1],"25.1 µM [falling, partial curve]"
COc1ccc(C(C)(C)C)cc1NC(=O)Nc1ccc2c(c1)OCO2,AC50,[1],"12.6 µM [falling, partial curve]"
CCOC(=O)c1cc2sccc2n1CC(=O)N1CCCc2ccccc21,AC50,[1],"25.1 µM [falling, single point] [measured here: IkB-luc green channel]"
COc1cccc(CNc2nccn(-c3cc(C)cc(C)c3)c2=O)c1,AC50,[1],"39.8 µM [falling, partial curve]"
COc1ccc(NC(=O)Cn2c(=O)n(Cc3ccco3)c(=O)c3cc(OC)c(OC)cc32)cc1,AC50,[1],"10 µM [falling, partial curve]"
CCCCN(CCCNC(=O)c1ccc(Sc2ccc(Cl)cc2)c(NC(C)=O)c1)c1ccccc1,AC50,[1],"10 µM [falling, partial curve]"
Cc1cc2c(cc1S(=O)(=O)CCC(=O)N1CCCC(C)C1)OCC(=O)N2 (stereo not drawn),AC50,[1],"39.8 µM [falling, single point]"
Cc1cc(NC(=O)COc2cccc3cccnc23)no1,AC50,[1],"12.6 µM [falling, partial curve]"
COCCn1c(CCC(=O)Nc2ccc(C)c(Cl)c2)nc2cccnc21,AC50,[1],"39.8 µM [falling, single point]"
Clc1ccc2nc(NCc3ccccc3)c3nncn3c2c1,AC50,[1],"3.98 µM [rising, partial curve]"
CCSc1ncc(Cl)c(C(=O)Nc2ccc(S(=O)(=O)N3CCC(C)CC3)cc2)n1,AC50,[1],"0.631 µM [falling, full curve, poor fit]"
Cc1c(Cl)cccc1NC(=O)Cn1cc(C(=O)C2CCCCC2)c2ccccc21,AC50,[1],"3.16 µM [falling, full curve]"
Cn1c(=O)c2c(nc(NCc3ccco3)n2C/C=C/c2ccccc2)n(C)c1=O,AC50,[1],"3.16 µM [falling, full curve, poor fit]"
Cc1cccc(CNC(=O)C(=O)Nc2ccccc2C)c1,AC50,[1],"20 µM [falling, single point]"
Fc1ccccc1-n1ncc2c1ncn1nc(-c3ccccc3Cl)nc21,AC50,[1],"3.98 µM [falling, partial curve]"
CC1CCCCN1CCCNC(=O)c1[nH]c2ccccc2c1Sc1ccc(Cl)cc1 (stereo not drawn),AC50,[1],"6.31 µM [falling, partial curve]"
COc1ccccc1CNC(=O)CCC1N=C2c3ccccc3N=C(SCC(N)=O)N2C1=O (stereo not drawn),AC50,[1],"1.58 µM [rising, full curve, poor fit]"
Cc1ccc(CNC(=O)c2ccc(CSCc3ccccc3Cl)o2)cc1,AC50,[1],"25.1 µM [falling, single point]"
Cc1ccc(S(=O)(=O)NCC(c2ccc(N(C)C)cc2)N2CCc3ccccc32)cc1C (stereo not drawn),AC50,[1],"12.6 µM [falling, single point]"
COC(=O)Cc1c(C)c2cc3c(c(C)c2oc1=O)OCN(CCc1ccccc1F)C3,AC50,[1],"25.1 µM [falling, single point]"
Cc1ccc(NC(=O)c2c(NC(=O)Cc3ccccc3)sc3c2CCC3)cc1,AC50,[1],"1.58 µM [falling, partial curve]"
CCN1C(=O)c2ccccc2Sc2ccc(NC(=O)Nc3ccccc3OC)cc21,AC50,[1],"25.1 µM [falling, partial curve]"
CC(=O)Nc1coc2ccc(Br)cc12,AC50,[1],"10 µM [falling, partial curve]"
CC1CCN(C(c2ccc(F)cc2)c2sc3nc(-c4ccco4)nn3c2O)CC1 (stereo not drawn),AC50,[1],"39.8 µM [falling, single point]"
CCOc1ccc(-c2cc(CCCC(=O)NCCCOC)no2)cc1,AC50,[1],"12.6 µM [falling, partial curve]"
COc1ccccc1NC(=O)CSc1nnc(COc2ccc(Cl)cc2)n1Cc1ccco1,AC50,[1],"6.31 µM [falling, partial curve]"
CCc1ccc(-n2c(N3CCN(c4ccc(F)cc4)CC3)nc3ccccc3c2=O)cc1,AC50,[1],"10 µM [falling, partial curve]"
CSc1ccc(-c2c(C#N)c(N)nc3c2CCCC3)cc1,AC50,[1],"25.1 µM [falling, partial curve]"
CCCCOc1ccc(-c2c(C#N)c(N)nc(SCC(N)=O)c2C#N)cc1,AC50,[1],"25.1 µM [falling, partial curve]"
COc1ccc(NC(=O)C(NC(=O)/C=C\c2ccc3c(c2)OCO3)c2ccc(C)cc2)cc1 (stereo not drawn),AC50,[1],"1.26 µM [rising, full curve, poor fit]"
CCOC(=O)c1c(NC(=O)CN2CCCCC2)sc2c1CCCC2O (stereo not drawn),AC50,[1],"31.6 µM [falling, partial curve]"
Cc1noc(C)c1S(=O)(=O)N(CC(=O)NCc1ccccc1)c1ccc(C(C)C)cc1,AC50,[1],"15.8 µM [falling, partial curve, poor fit]"
COc1ccc(-c2nc(SCC(=O)NC3CCCC3)c(-c3ccc(F)cc3)[nH]2)cc1OC,AC50,[1],"20 µM [falling, partial curve]"
COc1ccc(NC(=O)Cn2c(=O)c3cccn3c3ccccc32)cc1,AC50,[1],"12.6 µM [falling, partial curve]"
CCCCN(C)S(=O)(=O)c1ccc(C(=O)Nc2sc3c(c2C(=O)OCC)CCN(C(C)C)C3)cc1,AC50,[1],"31.6 µM [falling, single point]"
CCSc1nc(-c2ccccc2)nc2c1Cc1c(CO)cnc(C)c1O2,AC50,[1],"7.94 µM [rising, single point]"
CCOC(=O)C1CCN(C(=O)C2CCN(S(=O)(=O)c3c(C)noc3/C=C/c3ccc(C)cc3)CC2)CC1,AC50,[1],"0.00631 µM [falling, full curve, poor fit]"
CC(=O)Nc1nc(COc2ccccc2)cs1,AC50,[1],"7.94 µM [falling, partial curve]"
CCCC1=Nc2cc(C(=O)NCc3ccccc3)ccc2Sc2ccccc21,AC50,[1],"6.31 µM [rising, single point] [measured here: IkB-luc green channel]"
CC/C(=C(\c1ccccc1)c1ccc(OCCN(C)C)cc1)c1ccccc1,AC50,[1],"39.8 µM [falling, partial curve] and 15.8 µM [falling, partial curve]"
COc1ccc(OC)c(NC(=O)CSc2nnnn2-c2ccc3c(c2)OCO3)c1,AC50,[1],"3.16 µM [falling, full curve, poor fit]"
CCc1oc2ccccc2c1C(=O)c1cc(Br)c(O)c(Br)c1,AC50,[1],"12.6 µM [falling, partial curve]"
Cc1cccc(C(=O)N2CCc3cc(CNC(=O)c4ccco4)ccc32)c1,AC50,[1],"31.6 µM [falling, partial curve]"
COc1ccccc1CNc1nccn(-c2ccc(F)cc2)c1=O,AC50,[1],"10 µM [falling, partial curve]"
COC(=O)CN1C(=O)C(O)(c2c(C)[nH]c3ccccc23)c2ccccc21 (stereo not drawn),AC50,[1],"7.94 µM [rising, partial curve]"
Cc1csc2nc(COc3ccc(NC(=O)c4ccccc4F)cc3)cc(=O)n12,AC50,[1],"39.8 µM [falling, single point]"
O=C(CSC1=Nc2ccccc2C2=NC(Cc3ccccc3)C(=O)N12)Nc1cccc(Cl)c1 (stereo not drawn),AC50,[1],"39.8 µM [falling, single point]"
CCOC(=O)c1c(-c2ccccc2)oc2ccc(NS(=O)(=O)c3ccc(C)cc3)cc12,AC50,[1],"39.8 µM [falling, single point]"
Cc1ccnc(NC(c2cccc(O)c2)c2ccc3ccc(C)nc3c2O)c1 (stereo not drawn),AC50,[2],"25.1 µM [rising, single point]"
same,AC50,[3],"12.6 µM [falling, partial curve]"
COc1cc(C(c2sc3nc(C)nn3c2O)N2CC(C)OC(C)C2)cc(OC)c1OC (stereo not drawn),AC50,[1],"15.8 µM [falling, partial curve]"
O=C(Nc1cc(F)ccc1F)C1CCN(C(=O)c2cnn(-c3ccccc3)c2-n2cccc2)CC1,AC50,[1],"25.1 µM [falling, partial curve]"
COc1ccc(Cl)c2sc(NC(=O)c3ccc(S(=O)(=O)N4CCCC4)cc3)nc12,AC50,[1],"3.16 µM [falling, partial curve]"
COc1ccc(OC)c(C2CC(=O)Nc3c2c(=O)n(C)c2ncnn32)c1 (stereo not drawn),AC50,[1],"25.1 µM [rising, partial curve, poor fit]"

# In a second layout: entries from further up
structure (smiles) | measurement | setting | value
CS(=O)(=O)c1oc(-c2ccc(F)cc2)nc1S(=O)(=O)c1ccc(Cl)cc1 | AC50 | [1] | 2.51 µM [falling, full curve]
N#C/C(=C(/O)COC(=O)CCCNC(=O)c1ccc(Cl)cc1)c1nc2ccccc2[nH]1 | AC50 | [3] | 12.6 µM [falling, partial curve]

# Two entries picked at random from the list so far, as already listed:
structure (smiles),measurement,setting,value
Cc1cc2c(cc1S(=O)(=O)CCC(=O)N1CCCC(C)C1)OCC(=O)N2 (stereo not drawn),AC50,[1],"39.8 µM [falling, single point]"
CCCCOc1ccc(-c2c(C#N)c(N)nc(SCC(N)=O)c2C#N)cc1,AC50,[1],"25.1 µM [falling, partial curve]"
